Test results as given in PubChem BioAssay AID1347075 (National Center for Advancing Translational Sciences (NCATS), 2019).
In all, about 400,000 compounds went through this assay and about 5,500 (1.4%) were called active. Inconclusive results, whose numbers are uncertain, are shown with a selection of clear calls. Calls come from the whole dose curve; as a rule, active = well fitted cell-killing curve with a large enough effect; inconclusive = small, poorly fitted or top-dose-only effect, or effect the other way; inactive = flat fitted curve, though single readings scatter. Where the call is inconclusive, the potency comes from a doubtful curve fit. Where a structure was tested more than once in an assay, its records may differ in their call.

experiment: qHTS assay for MDR1-selective chemotherapeutics: Primary screen using the parental adenocarcinoma cell KB-3-1; details: KB-3-1 viability, CellTiter-Glo ATP luminescence, 72 h; activity change, negative = cytotoxic: at 46.1 µM (top of the series); note: nearly all actives have a fitted effect of over 60% in size
Summary of the method: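 Using CellTiter-Glo luminescence, growth of non-resistant KB-3-1 adenocarcinoma cells is assessed 72 h after pin-tool compound addition at 37 °C. Normalized responses across the concentration series yield fitted curves.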
% is set by controls: 0 for no effect and ±100 for the full control effect; potency is the fitted concentration of half-maximal effect.

Question: With `Cc1nn(Cc2ccc(C(=O)N3c4ccc(F)cc4CCC3C)o2)c(C)c1Br` (stereo not given) as the compound, how does the Potency read?
Answer: Its Potency is inconclusive: 20.6 µM [cytotoxic, single point].

Question: With `Cc1cccn2c(=O)cc(COC(=O)C(C)Oc3ccccc3)nc12` (stereo not given) as the compound, how does the Potency read?
Answer: The Potency was “inactive”.

Question: With `Cc1cc(C)c2c(c1)OC(=O)CC2c1ccc2c(c1)OCO2` (stereo not given) as the compound, how does the Potency read?
Answer: Its Potency is “inactive”.

Question: For `COc1ccccc1CNC(=O)COC(=O)c1ccc2c(=O)n3c(nc2c1)CCCCC3`, which Potency is on record?
Answer: Its Potency is “inactive”.

Question: With `Cc1cccc(N(CC(=O)NCCSCc2ccc(Cl)cc2)S(C)(=O)=O)c1C` as the compound, how does the Potency read?
Answer: Its Potency is “inactive”.

Question: With `CCOC(=O)Cn1c(=O)oc2cc(S(=O)(=O)N3CCN(c4ccccc4F)CC3)ccc21` as the compound, how does the Potency read?
Answer: The Potency was “inactive”.

Question: Which Potency does the source give for `Cc1cccc(C)c1NC(=O)CNc1ncnc2sc(C)c(C)c12` here?
Answer: The Potency was inconclusive: 20.6 µM [cytotoxic, single point].

Question: For `COc1ccc(NC(=O)c2cc(-c3cc(F)ccc3OCC3CCCO3)n[nH]2)cc1OC` (stereo not given), which Potency is on record?
Answer: The Potency was inconclusive: 29.1 µM [cytotoxic, single point].

Question: With `O=C(Nc1cccc(F)c1)N1CCC(n2c(=O)[nH]c3ccccc32)CC1` as the compound, how does the Potency read?
Answer: The Potency was inconclusive: 20.6 µM [cytotoxic, partial curve].

Question: Which Potency does the source give for `O=C(COC(=O)C12CC3CC(CC(C3)C1)C2)NCC1CCCO1` (stereo not given) here?
Answer: The Potency was “inactive”.

Question: Which Potency does the source give for `Cc1cccc(Cn2c(CN3CCN(Cc4ccccc4)CC3)nc3c2c(=O)[nH]c(=O)n3C)c1` here?
Answer: Its Potency is inconclusive: 23.1 µM [cytotoxic, single point].

Question: For `CCOC(=O)C[C@H]1c2ccccc2S(=O)(=O)N1Cc1cccc(C(F)(F)F)c1`, which Potency is on record?
Answer: Its Potency is active: 16.4 µM.

Question: With `Cn1cc(CN2CCCC(C(=O)Nc3cccc(-c4cc5ccccc5[nH]4)c3)C2)cn1` (stereo not given) as the compound, how does the Potency read?
Answer: The Potency was inconclusive: 32.6 µM [cytotoxic, partial curve, poor fit].

Question: For `CCO/C(C)=C1/SC(=S)NC1=O`, which activity change, negative = cytotoxic is on record?
Answer: Its activity change, negative = cytotoxic is inconclusive: 31.5%.

Question: With `Cc1ccc(NC(=O)c2cccs2)cc1NC(=O)c1ccc(F)cc1` as the compound, how does the Potency read?
Answer: The Potency was inconclusive: 1.84 µM [cytotoxic, partial curve, poor fit].

Question: For `CCOCCOC(=O)c1[nH]c2c(c1C)C(=O)CC(c1ccccc1)C2` (stereo not given), which Potency is on record?
Answer: Its Potency is active: 0.92 µM.

Question: With `N#CC(C#N)=Cc1cnc(N2CCN(c3ccccc3)CC2)s1` as the compound, how does the Potency read?
Answer: Its Potency is “inactive”.

Question: With `CN(C)c1ccc(-c2cc([C@H]3[C@@H]4C=CCC[C@@]4(C)C(=O)N3Cc3ccccc3)ccc2F)cc1` as the compound, how does the Potency read?
Answer: Its Potency is inconclusive: 11.6 µM [cytotoxic, partial curve].

Question: With `O=C(NC(=S)Nc1ccc(N2CCOCC2)cc1)c1cccc(Cl)c1` as the compound, how does the Potency read?
Answer: The Potency was “inactive”.

Question: For `Cc1ccccc1OCC(=O)NCC(=O)OCC(=O)c1ccc(-c2ccccc2)cc1`, which Potency is on record?
Answer: Its Potency is inconclusive: 20.6 µM [rising, partial curve, poor fit].

Question: For `CC12CCC(=O)N1C(C(=O)NCc1ccc(Cl)cc1Cl)CS2` (stereo not given), which Potency is on record?
Answer: Its Potency is “inactive”.

Question: With `c1ccc(COc2ncnc3c2ncn3CCCN2CCN(Cc3cccc4ccccc34)CC2)cc1` as the compound, how does the Potency read?
Answer: Its Potency is active: 14.6 µM.

Question: With `COc1ccc(CNC(=O)c2ccc3c(c2)N(C)C(=O)C2CCCCN32)cc1OC` (stereo not given) as the compound, how does the Potency read?
Answer: Its Potency is “inactive”.

Question: Which Potency does the source give for `O=Cc1s/c(=N\S(=O)(=O)c2ccccc2)n(CCCCl)c1Cl` here?
Answer: The Potency was inconclusive: 2.59 µM [cytotoxic, partial curve, poor fit].

Question: For `COc1ccc(-c2nc(-c3ccccn3)ncc2S(C)(=O)=O)cc1`, which activity change, negative = cytotoxic is on record?
Answer: Its activity change, negative = cytotoxic is inconclusive: -2.96%.

Question: Which Potency does the source give for `Cc1sc2ncnc(Sc3ccccc3C(=O)Nc3ccc(C#N)cc3)c2c1C` here?
Answer: Its Potency is “inactive”.

Question: Which Potency does the source give for `Oc1ccc(Cc2ccccc2)c2cccnc12` here?
Answer: Its Potency is active: 23.1 µM.

Question: For `CCOC(=O)c1ccc(NC(=O)C2=C(C)Nc3nc(SCc4ccc(Cl)cc4)nn3C2c2ccc(C)cc2)cc1` (stereo not given), which Potency is on record?
Answer: Its Potency is “inactive”.

Question: Which Potency does the source give for `Cc1ccc(S(=O)(=O)CCC(=O)Nc2cccc(S(=O)(=O)N3CCCCCC3)c2)cc1` here?
Answer: Its Potency is inconclusive: 25.9 µM [cytotoxic, single point].

Question: With `OC(CCN1CCC2CCC(C2)C1)c1ccc(Br)cc1` (stereo not given) as the compound, how does the activity change, negative = cytotoxic read?
Answer: The activity change, negative = cytotoxic was inconclusive: -9.35%.

Question: For `CN(C)N=Nc1nc2c(c(=O)n(C)c(=O)n2C)n1CC1CO1` (stereo not given), which Potency is on record?
Answer: The Potency was inconclusive: 29.1 µM [cytotoxic, single point].

Question: With `COc1cc([N+](=O)[O-])ccc1NC(=O)Nc1cccnc1` as the compound, how does the Potency read?
Answer: The Potency was inconclusive: 13 µM [rising, partial curve, poor fit].

Question: Which Potency does the source give for `O=c1c(Cl)c(Cl)cnn1Cc1ccccc1Cl` here?
Answer: The Potency was inconclusive: 29.1 µM [cytotoxic, single point].

Question: With `CCc1ncn(CCc2ccccc2OC)c1C(C)C` as the compound, how does the Potency read?
Answer: Its Potency is inconclusive: 18.4 µM [cytotoxic, single point].

Question: For `CCOC(=O)N(C)S(=O)(=O)c1ccccc1[N+](=O)[O-]`, which Potency is on record?
Answer: The Potency was inconclusive: 0.0103 µM [cytotoxic, full curve].

Question: Which Potency does the source give for `Cc1c(Cl)cccc1NC(=S)NCC1COc2ccccc2O1` (stereo not given) here?
Answer: Its Potency is “inactive”.

Question: With `O=C(COC(=O)C1CCN(/C=C/C(=O)C(F)(F)F)CC1)Nc1ccccc1` as the compound, how does the Potency read?
Answer: Its Potency is inconclusive: 29.1 µM [rising, single point].

Question: For `CC(=O)Nc1ccc(NC(=O)C(C)Oc2ccccc2C(=O)NCc2ccccc2)cc1` (stereo not given), which Potency is on record?
Answer: Its Potency is inconclusive: 0.231 µM [rising, full curve].

Question: For `C[C@]12CC[C@H]3C(=CCc4cc(O)ccc43)[C@@H]1CCC2=O`, which Potency is on record?
Answer: Its Potency is inconclusive: 14.6 µM [cytotoxic, partial curve, poor fit].

Question: Which Potency does the source give for `COc1ccccc1N1C(=O)c2ccc(C(=O)Nc3ccc(C(=O)O)cc3)cc2C1=O` here?
Answer: Its Potency is “inactive”.

Question: With `CC1(C)COC(/C=C/c2ccc([N+](=O)[O-])cc2)=N1` as the compound, how does the Potency read?
Answer: Its Potency is inconclusive: 29.1 µM [cytotoxic, partial curve, poor fit].

Question: Which Potency does the source give for `CCOC(=O)Cn1c(CN(Cc2ccccc2)Cc2ccccc2)nc2c1c(=O)n(C)c(=O)n2C` here?
Answer: The Potency was inconclusive: 32.6 µM [cytotoxic, single point].

Question: Which Potency does the source give for `Cc1noc(C)c1C(=O)Nc1ccc(-n2ccc(C(F)(F)F)n2)cc1` here?
Answer: Its Potency is “inactive”.

Question: For `CCOC(=O)c1ccc(NC(=O)CSc2nc(=O)n(CCN3CCOCC3)c3c2CCC3)cc1`, which Potency is on record?
Answer: The Potency was “inactive”.

Question: For `N#CC1=C(N)Oc2cc(Nc3ccccc3)ccc2C1c1ccncc1` (stereo not given), which Potency is on record?
Answer: Its Potency is inconclusive: 6.51 µM [cytotoxic, partial curve].

Question: With `O=C(c1cc(-c2ccccn2)nc2c(Cl)cccc12)N1CCN(S(=O)(=O)c2ccccc2)CC1` as the compound, how does the Potency read?
Answer: The Potency was “inactive”.

Question: Which Potency does the source give for `CNC(=O)c1cc(S(=O)(=O)Nc2ccc3c(c2)OCO3)ccc1C` here?
Answer: Its Potency is inconclusive: 20.6 µM [cytotoxic, partial curve, poor fit].

Question: For `CCn1ncc(C2=NOC(C(=O)Nc3cnn(C45CC6CC(CC(C6)C4)C5)c3)C2)c1C` (stereo not given), which Potency is on record?
Answer: The Potency was inconclusive: 10.3 µM [cytotoxic, partial curve, poor fit].

Question: For `NC(CSS(=O)(=O)O)=NCCC12CC3CC(CC(O)(C3)C1)C2`, which Potency is on record?
Answer: Its Potency is inconclusive: 0.0366 µM [rising, full curve].

Question: With `O=C(CSc1nc2ccc([N+](=O)[O-])cc2[nH]1)NC1CCCCC1` as the compound, how does the Potency read?
Answer: The Potency was inconclusive: 29.1 µM [cytotoxic, single point].

Question: Which Potency does the source give for `CCOC(=O)/C(C#N)=C/c1c(OCC)n(CC)c2ccccc12` here?
Answer: The Potency was “inactive”.

Question: For `Cc1ccc(N/N=C(\C#N)C(=O)c2ccsc2)cc1`, which Potency is on record?
Answer: Its Potency is inconclusive: 23.1 µM [cytotoxic, single point].

Question: With `COc1ccc(NC(=O)C(=O)NCCC2CCCCN2S(=O)(=O)c2ccc(F)cc2)cc1` (stereo not given) as the compound, how does the Potency read?
Answer: Its Potency is inconclusive: 18.4 µM [cytotoxic, partial curve, poor fit].

Question: With `Cc1cccc(N2CCN(C(=O)CCC(=O)N3Cc4ccccc4Oc4ncccc43)CC2)c1C` as the compound, how does the Potency read?
Answer: The Potency was inconclusive: 20.6 µM [cytotoxic, single point].

Question: Which Potency does the source give for `COc1ccc(CCNC(=O)c2cc(Nc3cc(C)cc(C)c3)nc3ccccc23)cc1OC` here?
Answer: The Potency was inconclusive: 25.9 µM [cytotoxic, single point].

Question: For `Cc1sc(NC(=O)C2CCCCC2C(=O)O)c(C(N)=O)c1-c1ccc(C(C)C)cc1` (stereo not given), which Potency is on record?
Answer: Its Potency is inconclusive: 20.6 µM [cytotoxic, partial curve].

Question: For `CCOc1cc(CNC(=O)CCCn2c(=O)c3cccn3c3cccnc32)cc(OCC)c1OCC`, which Potency is on record?
Answer: Its Potency is “inactive”.

Question: Which Potency does the source give for `COc1ccc(S(=O)(=O)NCCc2nnc3ccc(SCC(=O)Nc4ccc(C(F)(F)F)cc4)nn23)cc1` here?
Answer: Its Potency is “inactive”.

Question: With `CCOc1cc(C(=O)Nc2cnccn2)cc(OCC)c1OCC` as the compound, how does the Potency read?
Answer: The Potency was “inactive”.

Question: For `COc1cc(/C=N/Nc2nc3c(c(=O)n(C)c(=O)n3C)n2Cc2ccccc2)ccc1OC(=O)c1ccco1`, which Potency is on record?
Answer: The Potency was inconclusive: 29.1 µM [cytotoxic, single point].

Question: With `COC(=O)[C@]12CCCCC=C1N(Cc1ccc3c(c1)OCO3)C(=O)[C@H](CC(=O)N1CCSCC1)C2` as the compound, how does the Potency read?
Answer: The Potency was “inactive”.

Question: With `O=C(c1cnc2cc(-c3ccccc3)nn2c1)c1cc([N+](=O)[O-])ccc1O` as the compound, how does the Potency read?
Answer: The Potency was inconclusive: 20.6 µM [cytotoxic, single point].

Question: Which Potency does the source give for `CCCc1c(-c2ccccc2)ncn1Cc1ccccc1OC` here?
Answer: The Potency was inconclusive: 20.6 µM [cytotoxic, single point].

Question: With `O=C(c1ccco1)N1CCN(CC(O)COc2ccc(Br)cc2)CC1` (stereo not given) as the compound, how does the Potency read?
Answer: The Potency was inconclusive: 32.6 µM [cytotoxic, single point].

Question: Which Potency does the source give for `COc1cccc(CN(C)C(=O)c2ccc(OCC(=O)Nc3cccc(C(F)(F)F)c3)c(OC)c2)c1` here?
Answer: The Potency was inconclusive: 2.31 µM [cytotoxic, full curve, poor fit].

Question: For `CCOC(=O)CCN(C(=S)Nc1ccccc1)C1CCCCC1`, which Potency is on record?
Answer: Its Potency is inconclusive: 18.4 µM [rising, partial curve, poor fit].

Question: With `Cc1cccc(-n2c3c(cc(-c4nc(-c5ccc(Cl)cc5)cs4)c2=O)C(=O)CC(C)(C)C3)c1` as the compound, how does the Potency read?
Answer: Its Potency is “inactive”.

Question: Which Potency does the source give for `Cc1ccsc1CNC(=O)C1(C)CCN1C(C)C` (stereo not given) here?
Answer: Its Potency is “inactive”.

Question: With `O=C(/C=C/c1ccc(Cl)cc1)N1CCN(c2ccc([N+](=O)[O-])c(N3CCOCC3)c2)CC1` as the compound, how does the Potency read?
Answer: The Potency was inconclusive: 14.6 µM [cytotoxic, single point].

Question: Which Potency does the source give for `COc1ccccc1N1CCN(C(=O)c2ccc(COc3cccc4c3OC(C)(C)C4)cc2)CC1` here?
Answer: The Potency was inconclusive: 10.3 µM [cytotoxic, partial curve, poor fit].
